Measurements reported in PubChem BioAssay AID743448 (Peter MacCallum Cancer Centre, 2014).

Screen: 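Third-round triage of 106 confirmed candidates in four colon lines under two drugs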 (follow-up of hits)
Cell system: four human colon cancer cell lines: HCT116-VR (vorinostat-resistant HCT116 derivative), SW480, SW620 and LIM1215
Reagent: siRNA pool against human genes, 40 nM siRNA pool
Timing: drug added two days after transfection, read one day later
Treatment: vorinostat 2.5 µM on one half of each plate, etoposide 5 µM on the other half
Cell line and drug panel: vorinostat-resistant HCT116 cells with etoposide
Measured: 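Caspase 3/7 activity by luminescence and live-cell viability by fluorescence, each given as a ratio to mock-transfected wells and as a robust z-score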
Reading the numbers: caspase ratio to mock: higher = more caspase activity than mock; viability ratio to mock: higher = more live cells than mock
Hit rule: 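Hit means caspase ratio to mock at least 1.6, or viability ratio to mock at most 0.75; wells with strong death in the absence of drug get no call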
Meaning of the calls: active = caspase or viability hit in this panel; inactive = no change, or unhealthy well
This is a random part of the 106 reagents, under one of the conditions tested. 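Calls are per line and drug panel including etoposide, not vorinostat-specific; gene picks needed hits in two or more extra lines with vorinostat versus etoposide.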 Not all columns of the deposit are shown.

gene symbol	caspase ratio to mock	viability ratio to mock	Outcome
NFYA (nuclear transcription factor Y subunit alpha)	1.23	1.06	inactive
CNOT1 (CCR4-NOT transcription complex subunit 1)	5.67	1.12	active
POLR2I (RNA polymerase II subunit I)	2.64	0.83	active
DDX19B (DEAD-box helicase 19B)	4.8	0.81	active
CCNK (cyclin K)	1.15	0.86	inactive
NUP205 (nucleoporin 205)	3.13	0.58	active
MICALL2 (MICAL like 2)	3.36	1.14	active
TBC1D20 (TBC1 domain family member 20)	1.92	1.06	active
SAP130 (Sin3A associated protein 130)	1.24	0.99	inactive
IRX2-DT (IRX2 divergent transcript)	1.49	0.95	inactive
GNG8 (G protein subunit gamma 8)	2.33	0.84	active
PLAG1 (PLAG1 zinc finger)	1.96	1.03	active
EIF2B5 (eukaryotic translation initiation factor 2B subunit epsilon)	0.69	0.65	active
MRPL19 (mitochondrial ribosomal protein L19)	1.52	1.03	inactive
TDP2 (tyrosyl-DNA phosphodiesterase 2)	1.97	1.04	active
INTS6L (integrator complex subunit 6 like)	1.21	0.96	inactive
AKAP8 (A-kinase anchoring protein 8)	1.72	0.92	active
THAP3 (THAP domain containing 3)	1.67	0.87	active
RBBP8 (RB binding protein 8, endonuclease)	2.34	0.98	active
THOC5 (THO complex subunit 5)	1.93	0.84	active
TOX4 (TOX high mobility group box family member 4)	1.4	1.14	inactive
PNN (pinin, desmosome associated protein)	1.86	0.84	active
EIF1AX (eukaryotic translation initiation factor 1A X-linked)	0.86	0.6	active
THAP1 (THAP domain containing 1)	1.44	1.09	inactive
DNTTIP2 (deoxynucleotidyltransferase terminal interacting protein 2)	0.78	0.73	active
NUP58 (nucleoporin 58)	1.92	0.84	active
C1orf210 (chromosome 1 open reading frame 210)	3.68	1.01	active
CNOT3 (CCR4-NOT transcription complex subunit 3)	3.17	1	active
IQSEC1 (IQ motif and Sec7 domain ArfGEF 1)	2.38	0.84	active
NUP62 (nucleoporin 62)	2.51	0.8	active
GLI1 (GLI family zinc finger 1)	1.35	1.02	inactive
MED26 (mediator complex subunit 26)	3.92	0.88	active
OR6T1 (olfactory receptor family 6 subfamily T member 1)	2.15	1	active
HPCAL1 (hippocalcin like 1)	1.4	0.98	inactive
SLU7 (spliceosome associated SLU7)	1.47	0.71	active
CCDC59 (coiled-coil domain containing 59)	2.48	0.84	active
